Test results reported in PubChem BioAssay AID256 (DTP/NCI, 2004).
The list shows only some results of the screen, not a fair sample: it gathers tests that were run many times, whatever their T/C, doses with no T/C, and many T/C values between a quarter and a half above the control. Other doses and runs of a compound stand elsewhere. T/C: endpoint of the treated group in % of that of the vehicle group. Some entries give survivors of the animals treated and no T/C: the source files T/C as zero there, which appears to mark a toxic dose or a test without result, not a measured value. Some survivor counts are full or nearly so, which does not show that the dose was tolerated: survival well below the control is almost never listed, so the zero probably covers shortened survival too. Survivors were counted at the toxicity check, usually on the fifth day, unless a day is given; later deaths do not show. Schedule codes are those of the source, read here as Q, the interval in days (D) or hours (H), X, the number of doses. Some entries were tested several times; the results are listed from low to high. Some structures stand for samples that the source files as different forms (salt, stereo form or complex); doses refer to the form tested. Where survival is the endpoint, this PubChem deposit counts one and a half times the control or more as active, and values a quarter to a half above the control carry no call in these data; other NCI protocols may use other cut-offs. Some T/C values carry the count of animals alive at the toxicity check (mostly the fifth day); where none is given, no animal had died by that day. Brackets with × stand for listed records that agree.

Tested on: CD2F1 mice, L1210 leukemia ip, survival T/C
Assay: NCI In Vivo Anticancer Drug Screen. Data for tumor model L1210 Leukemia (intraperitoneal) in CD2F1 (CDF1) mice
Conditions: higher T/C = longer survival
Method in brief: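 Implant tumor; dose compound or vehicle; measure endpoint in both groups; report treated divided by control.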

[1] = T/C endpoint: median survival time, dose: 25.0 mg/kg/injection, schedule: Q01DX009 (ip), vehicle: saline with Tween-80
[2] = T/C endpoint: median survival time, dose: 50.0 mg/kg/injection, schedule: Q01DX009 (ip), vehicle: saline with Tween-80
[3] = T/C endpoint: median survival time, dose: 100.0 mg/kg/injection, schedule: Q01DX009 (ip), vehicle: saline with Tween-80
[4] = T/C endpoint: median survival time, dose: 400.0 mg/kg/injection, schedule: Q01DX009 (ip), vehicle: saline with Tween-80

## Cc1cc(C(C(N)=O)c2ccccc2)ccc1N(CCCl)CCCl (stereo not drawn)
T/C endpoint: mean survival time, dose: 133.0 mg/kg/injection, schedule: Q01DX001 (ip), vehicle: other
  T/C: 137 % of control
T/C endpoint: mean survival time, dose: 200.0 mg/kg/injection, schedule: Q01DX001 (ip), vehicle: other
  survivor count: 6 of 6
T/C endpoint: mean survival time, dose: 600.0 mg/kg/injection, schedule: Q01DX001 (ip), vehicle: other
  survivor count: 5 of 6

## CCOC(=O)Cn1cnc2cc(C)c(C)cc21
T/C endpoint: mean survival time, dose: 400.0 mg/kg/injection, schedule: Q01DX009 (ip), vehicle: saline with Tween-80
  survivor count: 3 of 6

## Cc1ccc(S(=O)(=O)N/N=C/c2ccccc2Cl)cc1
T/C endpoint: mean survival time, dose: 200.0 mg/kg/injection, schedule: Q01DX009 (ip), vehicle: Klucel (hydroxypropylcellulose) (HPC)
  survivor count: 3 of 6
T/C endpoint: mean survival time, dose: 400.0 mg/kg/injection, schedule: Q01DX009 (ip), vehicle: Klucel (hydroxypropylcellulose) (HPC)
  survivor count: 0 of 6

## COc1cc2ccncc2cc1O
T/C endpoint: mean survival time, dose: 100.0 mg/kg/injection, schedule: Q01DX009 (ip), vehicle: water
  survivor count: 2 of 6
T/C endpoint: mean survival time, dose: 200.0 mg/kg/injection, schedule: Q01DX009 (ip), vehicle: water
  survivor count: 0 of 6
T/C endpoint: mean survival time, dose: 400.0 mg/kg/injection, schedule: Q01DX009 (ip), vehicle: water
  survivor count: 0 of 6

## Brc1ccc(-c2csc(Nc3nc(-c4ccc(Br)cc4)cs3)n2)cc1
T/C endpoint: mean survival time, dose: 100.0 mg/kg/injection, schedule: Q04DX003 (ip), vehicle: saline with Tween-80
  survivor count: 6 of 6
T/C endpoint: mean survival time, dose: 200.0 mg/kg/injection, schedule: Q04DX003 (ip), vehicle: saline with Tween-80
  survivor count: 6 of 6

## c1ccc2[nH]c(C3CCCCN3)cc2c1 (stereo not drawn)
T/C endpoint: mean survival time, dose: 400.0 mg/kg/injection, schedule: Q01DX001 (ip), vehicle: saline
  survivor count: 0 of 6

## NC(=S)N/N=C/c1ccc(OC(=O)COc2ccccc2)cn1
T/C endpoint: mean survival time, dose: 132.0 mg/kg/injection, schedule: Q04DX003 (ip), vehicle: saline with Tween-80
  T/C: 125 % of control
T/C endpoint: mean survival time, dose: 200.0 mg/kg/injection, schedule: Q04DX002 (ip), vehicle: saline with Tween-80
  T/C: 126 % of control
T/C endpoint: mean survival time, dose: 300.0 mg/kg/injection, schedule: Q04DX003 (ip), vehicle: saline with Tween-80
  T/C: 125 % of control
T/C endpoint: mean survival time, dose: 450.0 mg/kg/injection, schedule: Q04DX003 (ip), vehicle: saline with Tween-80
  T/C: 141 % of control
[1]
  T/C: 131, 144, 156, 172 % of control
[2]
  T/C: 151, 167, 168, 177, 180 % of control
[3]
  T/C: 143 [5 of 6 alive], 169, 173, 183, 184 % of control
T/C endpoint: median survival time, dose: 200.0 mg/kg/injection, schedule: Q01DX009 (ip), vehicle: saline with Tween-80
  T/C: 130 [5 of 6 alive], 160, 162, 178, 216 % of control
[4]
  T/C: 100, 101 [4 of 6 alive], 114, 142 % of control
  survivor count: 4 of 6

## CCCCCCCCCCCCCCCC(=O)N1CC[N+](C)(CC2=CC3(Cl)C(Cl)=C(Cl)C2(Cl)C3(Cl)Cl)CC1 (stereo not drawn)
T/C endpoint: mean survival time, dose: 300.0 mg/kg/injection, schedule: Q01DX001 (ip), vehicle: saline
  survivor count: 0 of 6

## NNC(=O)C1CC2CCC1C2 (stereo not drawn)
T/C endpoint: mean survival time, dose: 400.0 mg/kg/injection, schedule: Q04DX003 (ip), vehicle: saline
  survivor count: 1 of 6

## CNC(=S)NNc1ccc(Cl)cc1
T/C endpoint: mean survival time, dose: 200.0 mg/kg/injection, schedule: Q01DX009 (ip), vehicle: other
  survivor count: 0 of 6

## CNC(=O)CCC(NC(=O)c1ccc(N(C)Cc2cnc3nc(N)nc(N)c3n2)cc1)C(=O)O (stereo not drawn)
T/C endpoint: mean survival time, dose: 50.0 mg/kg/injection, schedule: Q01DX009 (ip), vehicle: sodium bicarbonate
  T/C: 133 % of control

## C#CCN(Cc1ccc2nc(N)[nH]c(=O)c2c1)c1ccc(C(=O)NC(CCC(=O)O)C(=O)O)cc1 (stereo not drawn)
T/C endpoint: median survival time, dose: 60.0 mg/kg/injection, schedule: Q01DX009 (ip), vehicle: sodium bicarbonate
  T/C: 130 and 142 % of control
T/C endpoint: median survival time, dose: 86.4 mg/kg/injection, schedule: Q01DX005 (ip), vehicle: water
  T/C: 146 % of control
T/C endpoint: median survival time, dose: 100.0 mg/kg/injection, schedule: Q01DX005 (ip), vehicle: alkali diluted with water
  T/C: 133 % of control (2×)
T/C endpoint: median survival time, dose: 100.0 mg/kg/injection, schedule: Q01DX005 (ip), vehicle: water
  T/C: 128 % of control
T/C endpoint: median survival time, dose: 125.0 mg/kg/injection, schedule: Q01DX005 (ip), vehicle: alkali diluted with water
  T/C: 134 % of control
T/C endpoint: median survival time, dose: 144.0 mg/kg/injection, schedule: Q01DX005 (ip), vehicle: water
  T/C: 128 % of control [5 of 6 alive]
T/C endpoint: median survival time, dose: 150.0 mg/kg/injection, schedule: Q01DX005 (ip), vehicle: alkali diluted with water
  T/C: 134 and 146 % of control
T/C endpoint: median survival time, dose: 200.0 mg/kg/injection, schedule: Q01DX005 (ip), vehicle: water
  T/C: 135 % of control
T/C endpoint: median survival time, dose: 240.0 mg/kg/injection, schedule: Q01DX009 (ip), vehicle: sodium bicarbonate
  survivor count: 0 of 6
T/C endpoint: median survival time, dose: 400.0 mg/kg/injection, schedule: Q01DX005 (ip), vehicle: water
  survivor count: 0 of 6 and 3 of 6
T/C endpoint: median survival time, dose: 666.6 mg/kg/injection, schedule: Q01DX005 (ip), vehicle: water
  survivor count: 0 of 6
T/C endpoint: median survival time, dose: 666.66 mg/kg/injection, schedule: Q01DX005 (ip), vehicle: water
  survivor count: 0 of 6

## CC1(C)C2CC=C(CCCc3ccccc3)C1C2 (stereo not drawn)
T/C endpoint: mean survival time, dose: 400.0 mg/kg/injection, schedule: Q04DX003 (ip), vehicle: saline with Tween-80
  survivor count: 3 of 6

## CCc1ncnc2cc(OCC3CO3)c(OC)cc12 (stereo not drawn)
T/C endpoint: median survival time, dose: 10.0 mg/kg/injection, schedule: Q01DX009 (ip), vehicle: other
  T/C: 145 % of control
T/C endpoint: median survival time, dose: 10.0 mg/kg/injection, schedule: Q03DX003 (ip), vehicle: saline
  T/C: 126 % of control
T/C endpoint: median survival time, dose: 12.5 mg/kg/injection, schedule: Q01DX009 (ip), vehicle: DMSO
  T/C: 133 % of control
T/C endpoint: median survival time, dose: 15.0 mg/kg/injection, schedule: Q01DX009 (ip), vehicle: suspension in saline
  T/C: 133 % of control
T/C endpoint: median survival time, dose: 20.0 mg/kg/injection, schedule: Q01DX001 (ip), vehicle: other
  T/C: 133 % of control
T/C endpoint: median survival time, dose: 20.0 mg/kg/injection, schedule: Q03DX003 (ip), vehicle: saline
  T/C: 133 and 135 % of control
T/C endpoint: median survival time, dose: 20.0 mg/kg/injection, schedule: Q04DX003 (ip), vehicle: other
  T/C: 133 % of control
T/C endpoint: median survival time, dose: 25.0 mg/kg/injection, schedule: Q01DX009 (ip), vehicle: DMSO
  T/C: 135 % of control
[1]
  T/C: 126 % of control
T/C endpoint: median survival time, dose: 25.0 mg/kg/injection, schedule: Q01DX009 (ip), vehicle: saline
  T/C: 131 % of control
T/C endpoint: median survival time, dose: 30.0 mg/kg/injection, schedule: Q01DX009 (ip), vehicle: suspension in saline
  T/C: 134 % of control [5 of 6 alive]
T/C endpoint: median survival time, dose: 40.0 mg/kg/injection, schedule: Q01DX001 (ip), vehicle: other
  T/C: 145 % of control
T/C endpoint: median survival time, dose: 40.0 mg/kg/injection, schedule: Q01DX001 (ip), vehicle: water
  T/C: 127 % of control
[2]
  T/C: 136 % of control
T/C endpoint: median survival time, dose: 50.0 mg/kg/injection, schedule: Q01DX009 (ip), vehicle: saline
  T/C: 136 % of control
T/C endpoint: median survival time, dose: 60.0 mg/kg/injection, schedule: Q01DX001 (ip), vehicle: water
  T/C: 144 % of control
T/C endpoint: median survival time, dose: 60.0 mg/kg/injection, schedule: Q01DX009 (ip), vehicle: other
  T/C: 145 % of control
T/C endpoint: median survival time, dose: 60.0 mg/kg/injection, schedule: Q01DX009 (ip), vehicle: suspension in saline
  T/C: 125 % of control
T/C endpoint: median survival time, dose: 100.0 mg/kg/injection, schedule: Q01DX009 (ip), vehicle: DMSO
  T/C: 135 % of control
[3]
  survivor count: 6 of 6
T/C endpoint: median survival time, dose: 100.0 mg/kg/injection, schedule: Q01DX009 (ip), vehicle: saline
  survivor count: 6 of 6
T/C endpoint: median survival time, dose: 120.0 mg/kg/injection, schedule: Q01DX009 (ip), vehicle: suspension in saline
  survivor count: 6 of 6

## CC(O)CC1CCCC(C)N1 (stereo not drawn)
T/C endpoint: mean survival time, dose: 400.0 mg/kg/injection, schedule: Q01DX001 (ip), vehicle: saline with Tween-80
  survivor count: 0 of 6
T/C endpoint: mean survival time, dose: 400.0 mg/kg/injection, schedule: Q04DX002 (ip), vehicle: saline with Tween-80
  survivor count: 0 of 3 and 1 of 6

## CC(=O)N(C)C
T/C endpoint: mean survival time, dose: 62.5 mg/kg/injection, schedule: Q01DX009 (ip), vehicle: saline
  T/C: 86, 93, 103 % of control (2×)
T/C endpoint: mean survival time, dose: 125.0 mg/kg/injection, schedule: Q01DX009 (ip), vehicle: saline
  T/C: 86, 94, 98, 103 % of control
T/C endpoint: mean survival time, dose: 250.0 mg/kg/injection, schedule: Q01DX009 (ip), vehicle: saline
  T/C: 88, 95, 97, 110 % of control
T/C endpoint: mean survival time, dose: 500.0 mg/kg/injection, schedule: Q01DX009 (ip), vehicle: saline
  T/C: 91, 97, 98, 104 % of control
T/C endpoint: mean survival time, dose: 3600.0 mg/kg/injection, schedule: Q01DX009 (ip), vehicle: saline
  survivor count: 3 of 6 and 5 of 6
